From PubChem BioAssay AID624291 (National Center for Advancing Translational Sciences (NCATS), 2012)
Out of some 350,000 compounds screened, about 220 (0.063%) were called active. This list was built around the results that the source calls inconclusive (neither active nor inactive); the mix of calls is not that of the screen. Calls follow the shape of the dose curve; as a rule, active = well fitted activation curve with a large enough effect; inconclusive = small, poorly fitted or top-dose-only effect; inactive = no such curve, though single readings can be large or run the other way. Potencies beside an inconclusive call are fits to weak or partial responses and may not hold up.
Potency is read from the fitted curve at half-maximal effect.

Assay: qHTS for Activators of Integrin-Mediated Alleviation for Muscular Dystrophy; also: nearly all actives have a fitted effect of over 60% in size;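 as to activation: 100% = response of the positive control SU9516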
Details: alpha7betagal myoblasts, beta-gal FDG fluorescence, 48 h; activation: at 38.3 µM (top of the series)
Method in brief: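 alpha7betagal+/- myoblasts (passage 13, 250/well) treated 48 h at 37C with compounds at 1:260 dilution of DMSO stock. Lysed, then beta-galactosidase activity read as FDG fluorescence (ex 480/em 540) after 30 min, with pre-read for autofluorescence.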
In the case of CC(C)c1ccc(NCCC(=O)c2ccc(Br)cc2)cc1, the “activation” value is reported as inactive: 19%.
For COc1cc(CNc2ccc3[nH]c(=O)[nH]c3c2)ccc1OCc1c(F)cccc1Cl, the Potency was inconclusive: 1.58 µM [activator, partial curve, poor fit].
With CCN1CCN(C(=O)c2ccccc2N(Cc2ccccc2)S(=O)(=O)c2ccc(C)cc2)CC1 the “activation” value was inactive: -37.3%.
With CCOC(=O)C1=C(O)CCn2c1nc1ccccc12 the Potency was inconclusive: 10 µM [activator, single point].
In the case of Cc1nnc2c(NCCC(C)C)nc3ccccc3n12, the Potency is reported as inconclusive: 2.51 µM [activator, partial curve, poor fit].
For Cc1sc2ncn(CC(=O)NCCCC(=O)Nc3ccc(C(C)C)cc3)c(=O)c2c1C, the Potency was inconclusive: 12.6 µM [activator, single point].
In the case of Cn1c(=O)n(Cc2ccccc2)c(=O)c2c1nc(NCC1CCCO1)n2Cc1ccccc1 (centres undefined), the Potency is reported as inconclusive: 5.01 µM [activator, full curve, poor fit].
With CCOC(=O)c1c(C)nn(-c2ccc(NC(=O)c3c(C)noc3C)cc2)c1C the “activation” value was inactive: 1.29%.
In the case of CNC(=S)N1CCC(NC(=O)C(Cc2ccc(OC)cc2)NC(C)=O)CC1 (centres undefined), the Potency is reported as inconclusive: 28.2 µM [activator, single point].
For CC(=O)c1c(C)[nH]c(C(=O)COC(=O)C2(C)CC2(Cl)Cl)c1C (centres undefined), the Potency was inconclusive: 7.94 µM [activator, partial curve, poor fit].
With CCN(C(=O)CSc1nnc(C)n1-c1ccc(C)cc1)c1c(N)n(Cc2ccccc2)c(=O)[nH]c1=O the “activation” value was inactive: -3.89%.
For Cc1ccc(C2CC(c3cccs3)=NN2C(=O)c2ccc(Br)o2)cc1 (centres undefined), the “activation” value was inactive: 23.8%.
For Cc1ccc(NC(=O)C(Nc2cccc(C)c2)c2ccccc2)cc1 (centres undefined), the Potency was inconclusive: 22.4 µM [activator, single point].
For CSCCC(NS(=O)(=O)/C=C/c1ccccc1)C(=O)O (centres undefined), the “activation” value was inactive: -14.2%.
In the case of Cc1ccc(NC(=S)NCC(C)CSc2ccc(Cl)cc2)cc1 (centres undefined), the Potency is reported as inconclusive: 2.51 µM [activator, full curve, poor fit].
With COC(=O)C1=C(C(=O)OC)[C@@H]2N(C)c3ccccc3[C@@]23C[C@@H](CO)N(C(=O)C2CCC2)C3=N1 the Potency was inconclusive: 12.6 µM [activator, single point].
In the case of Cc1ccc(NC(=O)COC(=O)C2CC(=O)N(Cc3ccccc3)C2)cc1S(=O)(=O)N(C)C (centres undefined), the Potency is reported as inconclusive: 12.6 µM [activator, single point].
For CNc1nc2c(N)ncnc2n1[C@H]1O[C@@H](CO)[C@H](O)[C@@H]1O, the Potency was inconclusive: 10 µM [activator, partial curve].
With COc1ccc(N(C(=O)COc2cccc(C)c2)S(=O)(=O)c2ccc(C)cc2)cc1 the Potency was inconclusive: 20 µM [activator, single point].
For O=C(N/N=C/c1sc2ccccc2c1O)c1ccccc1, the “activation” value was inactive: -10.5%.
In the case of COc1ccc(CN2C(=NC(=O)COc3ccccc3)SC3CS(=O)(=O)CC32)cc1 (centres undefined), the Potency is reported as inconclusive: 28.2 µM [activator, single point].
In the case of Cc1ccc(CNS(=O)(=O)c2cccc3nsnc23)cc1, the Potency is reported as inconclusive: 5.01 µM [activator, single point].
In the case of N#Cc1ncc(-c2ccc3c(c2)OCCOCCOCCOCCOCCO3)nc1C#N, the “activation” value is reported as inactive: -0.796%.
In the case of CN(CC(=O)NCCc1ccc(F)cc1)Cc1ccc(Br)cc1, the “activation” value is reported as inactive: 7.45%.
For O=C(O)Cc1csc(-c2ccc(F)cc2)n1, the Potency was inconclusive: 5.01 µM [activator, single point].
With Cn1c(Cn2nnc3ccccc32)nnc1SCC(=O)Nc1nccs1 the Potency was inconclusive: 0.355 µM [activator, full curve, poor fit].
With Cc1nc2ccc(NS(=O)(=O)c3ccccc3F)cc2s1 the Potency was inconclusive: 0.447 µM [activator, partial curve, poor fit].
In the case of COc1ccccc1CNC(=O)COC(=O)c1ccc(Cl)nc1, the “activation” value is reported as inactive: -16.1%.
In the case of Cc1cccc(NC(=S)NCc2ccc(F)cc2)c1C, the “activation” value is reported as inactive: -6.61%.
With CCN1CCN(CC(=O)Nc2ccc(C(C)=O)cc2)CC1 the Potency was inconclusive: 3.16 µM [activator, single point].
With CCOc1ccc(C(C)=O)cc1Cn1c(=O)oc2ccccc21 the Potency was inconclusive: 5.01 µM [activator, single point].
With CCn1cc(Br)c(C(=O)Nc2ccccc2C(=O)OC)n1 the Potency was inconclusive: 2.82 µM [activator, single point].
In the case of O=C(Nc1cccc(Cl)c1)NC1CC2CCC(C1)N2Cc1ccco1 (centres undefined), the “activation” value is reported as inactive: 2.07%.
In the case of Cc1cccc(-n2nc3c(c2NC(=O)C2CC2)CS(=O)(=O)C3)c1C, the Potency is reported as inconclusive: 5.01 µM [activator, single point].
For Cc1ccc(Sc2ccc(/C=N/O)cc2[N+](=O)[O-])cc1, the “activation” value was inactive: -24.8%.
For OCc1c[nH]c(=S)n1CCOc1cccc(C(F)(F)F)c1, the Potency was inconclusive: 5.01 µM [activator, single point].
With COc1ccc(N(CC(=O)N2CCN(c3ccccc3F)CC2)S(=O)(=O)c2ccc(C)cc2)cc1 the Potency was inconclusive: 2.82 µM [activator, single point].
For NC(=O)c1ccsc1NC(=O)COC(=O)c1ccc(Cl)cc1, the Potency was inconclusive: 20 µM [activator, single point].
With Cc1cc(Nc2ccc(N(C)C)cc2)n2ncnc2n1 the Potency was inconclusive: 10 µM [activator, partial curve, poor fit].
With COc1ccc(C(=O)n2nc(C#N)c(C#N)c2N)cc1 the Potency was inconclusive: 5.01 µM [activator, single point].
In the case of c1ccc2c(c1)c1ccccc1n1c(-c3ccc4c(c3)OCO4)nnc21, the Potency is reported as inconclusive: 6.31 µM [activator, partial curve, poor fit].
In the case of Cc1ccc(S(=O)(=O)N2CCN(C3CC4CCC3C4)CC2)cc1 (centres undefined), the Potency is reported as inconclusive: 7.08 µM [activator, partial curve, poor fit].
For NC(=S)NNc1ccc(Cl)c(Cl)c1, the “activation” value was inactive: -28.1%.
For CCn1c(C(=O)N2CCCC(C(=O)NCCc3ccc(C)cc3)C2)cc2sccc21 (centres undefined), the Potency was inconclusive: 5.01 µM [activator, partial curve, poor fit].
